Measurements published in the supplement of paper PMC10849652.
The other results are listed elsewhere or left out.

Sequences of proteins named here, by UniProt entry; tags and fusion partners are left off. A change or cut given only in a name is not applied to a line headed by its entry.
UniProt O75648: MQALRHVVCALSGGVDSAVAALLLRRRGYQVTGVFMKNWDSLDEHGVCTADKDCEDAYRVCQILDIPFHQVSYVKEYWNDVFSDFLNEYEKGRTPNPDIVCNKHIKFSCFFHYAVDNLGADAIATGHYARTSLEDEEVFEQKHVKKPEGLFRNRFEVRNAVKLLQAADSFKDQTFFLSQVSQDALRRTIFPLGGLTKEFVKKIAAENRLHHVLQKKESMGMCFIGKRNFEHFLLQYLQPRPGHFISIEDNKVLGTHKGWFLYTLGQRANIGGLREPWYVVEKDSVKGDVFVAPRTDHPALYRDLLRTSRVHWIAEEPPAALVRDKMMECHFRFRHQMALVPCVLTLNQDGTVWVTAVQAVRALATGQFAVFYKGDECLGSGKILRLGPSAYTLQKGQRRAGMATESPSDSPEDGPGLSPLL
UniProt Q12931: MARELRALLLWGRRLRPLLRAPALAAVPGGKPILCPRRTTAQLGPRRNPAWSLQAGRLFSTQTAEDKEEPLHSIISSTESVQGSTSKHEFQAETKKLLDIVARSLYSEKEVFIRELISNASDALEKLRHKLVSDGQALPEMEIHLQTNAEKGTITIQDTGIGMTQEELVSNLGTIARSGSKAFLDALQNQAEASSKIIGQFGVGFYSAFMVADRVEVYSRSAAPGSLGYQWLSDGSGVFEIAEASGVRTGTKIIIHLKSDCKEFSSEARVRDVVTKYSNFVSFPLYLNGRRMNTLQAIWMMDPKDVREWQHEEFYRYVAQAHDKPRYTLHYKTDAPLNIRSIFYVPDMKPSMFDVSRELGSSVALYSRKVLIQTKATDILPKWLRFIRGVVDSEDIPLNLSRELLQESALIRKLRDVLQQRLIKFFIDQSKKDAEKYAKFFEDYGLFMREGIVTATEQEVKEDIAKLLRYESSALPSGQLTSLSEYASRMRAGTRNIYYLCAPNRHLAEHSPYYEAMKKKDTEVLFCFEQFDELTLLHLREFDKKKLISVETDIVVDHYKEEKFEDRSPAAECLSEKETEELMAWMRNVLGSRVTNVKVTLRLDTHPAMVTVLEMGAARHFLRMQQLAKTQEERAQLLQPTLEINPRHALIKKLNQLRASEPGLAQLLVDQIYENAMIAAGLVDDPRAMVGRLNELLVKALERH
UniProt Q8NFQ8: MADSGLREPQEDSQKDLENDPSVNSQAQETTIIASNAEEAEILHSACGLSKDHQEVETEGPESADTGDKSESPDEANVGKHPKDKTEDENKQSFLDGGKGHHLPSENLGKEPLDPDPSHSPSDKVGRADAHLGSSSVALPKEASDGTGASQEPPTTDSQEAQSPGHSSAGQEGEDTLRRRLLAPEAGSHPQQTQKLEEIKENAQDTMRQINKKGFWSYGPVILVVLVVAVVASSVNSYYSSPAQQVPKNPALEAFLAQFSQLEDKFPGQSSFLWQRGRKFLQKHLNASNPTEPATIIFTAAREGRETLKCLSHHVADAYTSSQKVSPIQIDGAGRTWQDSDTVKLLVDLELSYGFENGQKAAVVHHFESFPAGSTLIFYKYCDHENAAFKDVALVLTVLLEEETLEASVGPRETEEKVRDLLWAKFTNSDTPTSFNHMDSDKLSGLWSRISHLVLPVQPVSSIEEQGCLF
UniProt Q15645: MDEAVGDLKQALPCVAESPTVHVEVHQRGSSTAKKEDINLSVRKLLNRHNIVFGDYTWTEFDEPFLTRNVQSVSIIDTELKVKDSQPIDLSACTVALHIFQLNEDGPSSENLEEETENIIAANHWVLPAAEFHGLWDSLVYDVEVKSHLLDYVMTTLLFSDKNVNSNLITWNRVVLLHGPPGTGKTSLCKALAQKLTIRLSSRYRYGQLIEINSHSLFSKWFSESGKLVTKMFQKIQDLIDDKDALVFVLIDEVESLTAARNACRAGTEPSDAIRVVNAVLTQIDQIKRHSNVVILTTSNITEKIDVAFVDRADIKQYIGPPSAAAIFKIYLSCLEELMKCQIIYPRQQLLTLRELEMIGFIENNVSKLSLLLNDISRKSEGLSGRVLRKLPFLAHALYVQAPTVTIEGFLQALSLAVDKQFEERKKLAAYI
UniProt Q7Z2T5: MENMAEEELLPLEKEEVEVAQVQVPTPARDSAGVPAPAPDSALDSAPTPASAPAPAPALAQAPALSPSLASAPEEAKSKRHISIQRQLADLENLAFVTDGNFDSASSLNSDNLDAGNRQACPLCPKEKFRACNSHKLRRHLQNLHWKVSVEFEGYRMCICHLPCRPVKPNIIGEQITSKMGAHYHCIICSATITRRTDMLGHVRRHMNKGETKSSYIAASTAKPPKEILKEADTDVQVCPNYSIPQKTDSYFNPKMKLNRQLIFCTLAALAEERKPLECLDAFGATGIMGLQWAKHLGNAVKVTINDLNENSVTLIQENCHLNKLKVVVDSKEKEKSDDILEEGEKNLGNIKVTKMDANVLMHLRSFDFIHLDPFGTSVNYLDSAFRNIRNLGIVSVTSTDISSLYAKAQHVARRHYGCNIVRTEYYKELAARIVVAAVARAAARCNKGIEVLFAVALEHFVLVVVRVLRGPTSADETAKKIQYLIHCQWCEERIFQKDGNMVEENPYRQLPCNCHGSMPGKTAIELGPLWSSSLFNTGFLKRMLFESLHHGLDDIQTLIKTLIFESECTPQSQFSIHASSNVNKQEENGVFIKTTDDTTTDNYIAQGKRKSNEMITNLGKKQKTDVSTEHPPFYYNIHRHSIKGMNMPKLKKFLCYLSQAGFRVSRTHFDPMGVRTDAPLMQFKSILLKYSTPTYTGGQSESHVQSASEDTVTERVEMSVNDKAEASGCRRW
UniProt P09493, whole entry, looked up: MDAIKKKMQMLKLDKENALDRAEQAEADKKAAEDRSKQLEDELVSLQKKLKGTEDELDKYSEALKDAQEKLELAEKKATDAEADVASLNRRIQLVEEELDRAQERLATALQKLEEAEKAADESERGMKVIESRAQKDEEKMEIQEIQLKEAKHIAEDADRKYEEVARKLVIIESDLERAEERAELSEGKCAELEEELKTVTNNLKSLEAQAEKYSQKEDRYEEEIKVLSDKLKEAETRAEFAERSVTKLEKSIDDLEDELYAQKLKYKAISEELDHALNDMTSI
UniProt A5PLN9: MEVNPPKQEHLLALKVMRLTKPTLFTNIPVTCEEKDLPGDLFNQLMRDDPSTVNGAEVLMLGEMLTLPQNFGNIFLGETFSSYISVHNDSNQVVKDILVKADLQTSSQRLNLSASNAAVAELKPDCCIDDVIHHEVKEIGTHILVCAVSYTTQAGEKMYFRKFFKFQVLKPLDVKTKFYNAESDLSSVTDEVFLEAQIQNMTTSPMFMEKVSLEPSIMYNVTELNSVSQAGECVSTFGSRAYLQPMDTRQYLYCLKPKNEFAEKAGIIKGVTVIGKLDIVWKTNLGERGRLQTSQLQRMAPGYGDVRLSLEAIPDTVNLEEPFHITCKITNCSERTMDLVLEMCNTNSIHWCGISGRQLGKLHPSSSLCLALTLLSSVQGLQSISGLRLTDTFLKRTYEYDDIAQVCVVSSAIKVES
UniProt Q8TBZ6: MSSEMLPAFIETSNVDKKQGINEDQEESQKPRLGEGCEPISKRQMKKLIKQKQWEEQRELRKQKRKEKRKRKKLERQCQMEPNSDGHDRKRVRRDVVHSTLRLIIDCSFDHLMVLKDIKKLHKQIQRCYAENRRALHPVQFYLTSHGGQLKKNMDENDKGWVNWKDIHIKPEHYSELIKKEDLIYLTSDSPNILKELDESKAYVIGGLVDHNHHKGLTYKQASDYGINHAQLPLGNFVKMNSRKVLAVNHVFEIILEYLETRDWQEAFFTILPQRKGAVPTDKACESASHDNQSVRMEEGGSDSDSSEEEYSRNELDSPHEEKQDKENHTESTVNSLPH
UniProt Q9P0U1: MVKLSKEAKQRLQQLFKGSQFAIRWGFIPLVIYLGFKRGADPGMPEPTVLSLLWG
UniProt Q86W33: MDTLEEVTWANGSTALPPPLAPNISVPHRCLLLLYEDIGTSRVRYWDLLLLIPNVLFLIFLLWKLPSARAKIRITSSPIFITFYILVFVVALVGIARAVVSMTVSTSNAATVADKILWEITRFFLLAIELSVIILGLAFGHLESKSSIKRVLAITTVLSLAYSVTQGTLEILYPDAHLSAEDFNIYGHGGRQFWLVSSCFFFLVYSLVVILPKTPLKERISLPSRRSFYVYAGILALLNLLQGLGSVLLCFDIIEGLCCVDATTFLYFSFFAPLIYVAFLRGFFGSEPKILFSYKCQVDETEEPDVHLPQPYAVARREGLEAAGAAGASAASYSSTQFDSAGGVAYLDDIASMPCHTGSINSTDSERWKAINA
UniProt P51580: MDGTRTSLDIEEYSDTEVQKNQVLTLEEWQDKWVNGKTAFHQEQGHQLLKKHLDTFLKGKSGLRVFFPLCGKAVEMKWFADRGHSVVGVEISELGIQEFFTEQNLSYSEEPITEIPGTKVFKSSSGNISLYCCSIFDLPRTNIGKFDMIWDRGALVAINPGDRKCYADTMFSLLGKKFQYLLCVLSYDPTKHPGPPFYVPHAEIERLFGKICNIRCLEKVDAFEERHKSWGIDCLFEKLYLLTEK
UniProt P20333, whole entry, looked up: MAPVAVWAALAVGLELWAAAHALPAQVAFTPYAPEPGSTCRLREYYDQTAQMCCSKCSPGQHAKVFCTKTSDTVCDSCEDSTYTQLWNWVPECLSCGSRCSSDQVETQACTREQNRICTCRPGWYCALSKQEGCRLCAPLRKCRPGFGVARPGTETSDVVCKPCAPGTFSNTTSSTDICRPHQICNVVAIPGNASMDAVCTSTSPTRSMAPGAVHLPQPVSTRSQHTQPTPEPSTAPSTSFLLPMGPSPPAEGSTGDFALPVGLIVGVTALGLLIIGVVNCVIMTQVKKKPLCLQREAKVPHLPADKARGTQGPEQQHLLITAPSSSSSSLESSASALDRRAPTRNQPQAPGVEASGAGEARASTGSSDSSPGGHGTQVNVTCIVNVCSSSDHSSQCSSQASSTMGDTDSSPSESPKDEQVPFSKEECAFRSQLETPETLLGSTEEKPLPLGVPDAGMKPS

Assays:
Assay in all cases: log2 fold change, soluble protein after heating vs DMSO (PISA); higher = thermal stabilisation; K562 cells, 10 uM, 30 min; active = over 0.2 and 3.5 SD of the protein, either way, in both replicates (recomputed)
[1] = compound: C1=CC=C(C=C1)[C@H](COC2=CC3=C(C=C2)NC(=O)N3)NC(=O)C4=CC=CN(C4=O)CC5=CC(=C(C=C5)F)F
How it was run: (§1)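 K562 cells at 2×10^6 cells/mL were given 10 μM compound for 30 min. Aliquots then went through 3 min of heating across 48°C-58°C, were pooled, and were extracted in PBS with 0.5% NP-40 at 4°C, and the supernatant after 21,000xg for 90 min was quantified by TMTpro 16plex LC-MS/MS with channel sums equalised. Thermal stability relative to control samples, from duplicates, is given as log2 fold change.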

[2] = compound: CC1=C(SC2=C1C(=N[C@H](C3=NN=C(N32)C)CC(=O)N)C4=CC=C(C=C4)Cl)C
How it was run: as §1

[3] = compound: CC1=C2C(=CC=C1)N=C(N(C2=O)C3=CC=CC=C3C)CN4C=NC5=C(N=CN=C54)N
How it was run: as §1

[4] = compound: Cc1sc2c(c1C)C(c1ccc(Cl)cc1)=N[C@@H](CC(=O)OC(C)(C)C)c1nnc(C)n1-2
How it was run: as §1

[5] = compound: c1ccc([C@@H]2C[C@H]2NC2CCNCC2)cc1
How it was run: as §1

Measured: log2 fold change

TRMU (UniProt O75648)
inactive: [1] -0.021 | [2] 0.102 | [3] 0.09 | [4] 0.027 | [5] -0.011

TRAP1 (UniProt Q12931)
inactive: [1] 0.035 | [2] 0.01 | [3] -0.024 | [4] -0.037 | [5] 0.017

TOR1AIP2 (UniProt Q8NFQ8)
inactive: [1] 0.024 | [2] 0.016 | [3] -0.009 | [4] -0.005 | [5] -0.024

TRIP13 (UniProt Q15645)
inactive: [1] -0.015 | [2] 0.008 | [3] 0.011 | [4] -0.009 | [5] -0.022

TRMT1L (UniProt Q7Z2T5)
inactive: [1] 0.012 | [2] -0.297 | [3] -0.256 | [4] 0.126 | [5] 0

TPM1 isoform 4 (UniProt P09493)
inactive: [1] -0.011 | [2] 0.011 | [3] 0.015 | [4] -0.01 | [5] 0.008

TRAPPC13 isoform 5 (UniProt A5PLN9)
inactive: [1] -0.055 | [2] 0.154 | [3] 0.08 | [4] -0.013 | [5] -0.017

TRMT61B (UniProt Q9BVS5)
inactive: [1] 0.013 | [2] -0.018 | [3] -0.074 | [4] 0.033 | [5] -0.016

TPRKB (UniProt Q9Y3C4)
inactive: [1] -0.006 | [2] 0.016 | [3] 0.066 | [4] -0.048 | [5] 0.009

TRMT10A (UniProt Q8TBZ6)
inactive: [1] -0.038 | [2] 0.028 | [3] 0.006 | [4] -0.033 | [5] -0.055

Reprinted from the listing (2 entries):
TPRKB (UniProt Q9Y3C4)
inactive: [1] -0.006 | [2] 0.016 | [3] 0.066 | [4] -0.048 | [5] 0.009

TRMT10A (UniProt Q8TBZ6)
inactive: [1] -0.038 | [2] 0.028 | [3] 0.006 | [4] -0.033 | [5] -0.055

(next part)

TOMM7 (UniProt Q9P0U1)
inactive: [1] 0.03 | [3] 0.08 | [4] -0.046

TPRA1 (UniProt Q86W33)
inactive: [3] 0.039

TPMT (UniProt P51580)
inactive: [1] -0.025 | [2] 0.043 | [3] 0.011 | [4] -0.02 | [5] -0.015

TNFRSF1B (UniProt P20333)
inactive: [1] 0.029 | [2] 0.013 | [3] -0.225 | [4] 0.041 | [5] 0.015
